From US20240287071A1, “CLASS OF IMIDAZOLIDINOPYRIMIDONE COMPOUNDS AND USE THEREOF IN TREATMENT OF HSCLPP-MEDIATED DISEASES” (SICHUAN UNIVERSITY, priority 2021, published 2024)
Some of these results come from one statement about several compounds together.

Molecular target: HsClpP (Homo sapiens, UniProt Q16740)
Test: Isothermal Titration calorimetry (ITC)
Assay type: binding
Conditions: from Kd values
Description: Isothermal Titration calorimetry experiments can measure the binding affinity between small molecules and proteins. Binding affinity is generally measured and reported through the equilibrium dissociation constant (Kd), where the smaller the Kd value, the higher the binding affinity of the ligand for its target. In the experiment, the loading-samples and proteins were placed in a degassing apparatus at 30° C., with a vacuum degree of 400 mmHg or higher, and degassed for 10 minutes. A 50 mL PBS buffer was prepared, and the sample cell and syringe were rinsed. After rinsing, the liquid in the sample cell was completely removed, and the degassed protein and small molecules were taken out. The sample cell was thoroughly washed with protein, and the syringe was rinsed with the small molecule solution 3-5 times. After washing, 250 μL of protein (0.5 mM) was extracted using the syringe, avoiding the formation of bubbles. Subsequently, 200 μL was injected into the sample cell. 50 μL of the small molecule solution (0.1 mM) was extracted using an injector, again avoiding the formation of bubbles. The titration syringe was loaded onto the instrument, and titration commenced after the instrument was balanced.

| SMILES | affinity level increase compared to ONC201 |
| --- | --- |
| Cc1ccccc1CN1CCn2c1nc(=O)c1c2CCN(Cc2ccccc2)C1 [Compound 1, 7-benzyl-3-(2-methylbenzyl)-2,3,6,7,8,9-hexahydroimidazo[1,2-a]pyrido[3,4-e]pyrimidin-5(1H)-one] | up to 2 orders of magnitude |
| O=c1nc2n(c3c1CN(Cc1ccccc1)CC3)CCN2Cc1ccc(F)c(Br)c1 [Compound 21, 7-benzyl-3-(3-bromo-4-fluorobenzyl)-2,3,6,7,8,9-hexahydroimidazo[1,2-a]pyrido[3,4-e]pyrimidin-5 (1H)-one] | up to 2 orders of magnitude |
